{"source": "patent US20130060004", "about": "(published 2013)", "key": {"[1]": {"assay": "general procedure: hybrid (solid and solution phase) peptide synthesis; 2-chlorotrityl chloride resin or ethylamine 2-chlorotrityl resin; DIC/6-Cl-HOBt (fragment coupling: DIC/6-Cl-HOBt, DIC/HOBt, HBTU/HOBt/DIEA or DIC)", "details": "acetate"}, "[2]": {"assay": "general procedure: hybrid (solid and solution phase) peptide synthesis; 2-CTC resin; DIC/6-Cl-HOBt (fragment coupling: DIC/6-Cl-HOBt, DIC/HOBt, HBTU/HOBt/DIEA or DIC)", "details": "purification step, acetate"}}, "note": "Square brackets hold non-standard residues; d marks the D form. * marks the point of attachment. His(Trt) = N[C@@H](Cc1cn(C(c2ccccc2)(c2ccccc2)c2ccccc2)cn1)C(=O)O; pGlu = O=C1CC[C@@H](C(=O)O)N1; Boc = CC(C)(C)OC(=O)*; tBu = CC(C)(C)*", "data": [{"substance": "5-oxo-L-prolyl-L-histidyl-L-tryptophyl-L-seryl-L-tyrosyl-D-leucyl-L-leucyl-L-arginyl-N-ethyl-L-prolinamide", "values": [{"measurement": "final HPLC purity", "setting": "[1]; purification step, HPLC", "value": 80, "unit": "%"}, {"measurement": "step yield", "setting": "[1]; purification step", "value": 85, "unit": "%"}, {"measurement": "final purity (method not given)", "setting": "[1]; whole synthesis, HPLC", "value": "more than 98.5%"}]}, {"substance": "[pGlu][His(Trt)]W(Boc)S(tBu)Y(tBu)[dL]L-OH", "values": [{"measurement": "final HPLC purity", "setting": "[2]; HPLC", "value": 83, "unit": "%"}, {"measurement": "step yield", "setting": "[2]", "value": 80, "unit": "%"}]}]}
